Data as given in PubChem BioAssay AID504808 (Drosophila RNAi Screening Center, 2011)

- Purpose: 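Chromatin factors that keep E2F targets switched off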 (primary screen)
- Cell system: Drosophila S2 cells
- Knock-down reagent: long dsRNA against Drosophila genes
- Detection: 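Dual luciferase plate measurements; E2F-specific signal taken as firefly over Renilla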
- Scale: E2F firefly: higher = more E2F reporter activity; Renilla normaliser: higher = more normaliser reporter signal
- Rule for the call: 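Called active if the normalised E2F reporter went up by over 50%; the cutoff is arbitrary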
The deposit covers about 21,000 reagents; this is an unselected part of those that have a named target and a result. In the full data, 18 (0.084%) got an active call. 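Raw counts without plate normalisation, one of two replicates; the ratio scores behind the calls were not deposited.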 Reagent sequences are not shown. Not stated in the record: the amount of reagent, the time to read-out.

The first 3 entries as a preview:
CG12448 [DRSC01967] — E2F firefly, rep 1 = 98055; Renilla normaliser, rep 1 = 4574; activity call = inactive
Cox17 [DRSC20145] — E2F firefly, rep 1 = 2.33e5; Renilla normaliser, rep 1 = 6309; activity call = inactive
TfIIFbeta [DRSC16884] — E2F firefly, rep 1 = 1.43e5; Renilla normaliser, rep 1 = 7419; activity call = inactive

Main list, from the start:
CG12448 [DRSC01967] — E2F firefly, rep 1 = 98055; Renilla normaliser, rep 1 = 4574; activity call = inactive
Cox17 [DRSC20145] — E2F firefly, rep 1 = 2.33e5; Renilla normaliser, rep 1 = 6309; activity call = inactive
TfIIFbeta [DRSC16884] — E2F firefly, rep 1 = 1.43e5; Renilla normaliser, rep 1 = 7419; activity call = inactive
CG9067 [DRSC07328] — E2F firefly, rep 1 = 93489; Renilla normaliser, rep 1 = 3890; activity call = inactive
CG42714 [DRSC08798] — E2F firefly, rep 1 = 1.18e5; Renilla normaliser, rep 1 = 3737; activity call = inactive
AttA [DRSC05926] — E2F firefly, rep 1 = 2961; Renilla normaliser, rep 1 = 207; activity call = inactive
SmydA-5 [DRSC04867] — E2F firefly, rep 1 = 1.08e5; Renilla normaliser, rep 1 = 4572; activity call = inactive
CG12521 [DRSC09893] — E2F firefly, rep 1 = 1.23e5; Renilla normaliser, rep 1 = 6975; activity call = inactive
asun [DRSC16733] — E2F firefly, rep 1 = 80366; Renilla normaliser, rep 1 = 3122; activity call = inactive
CG34106 [DRSC01578] — E2F firefly, rep 1 = 1.46e5; Renilla normaliser, rep 1 = 5879; activity call = inactive
jp [DRSC02213] — E2F firefly, rep 1 = 78691; Renilla normaliser, rep 1 = 3236; activity call = inactive
jp [DRSC02744] — E2F firefly, rep 1 = 1.22e5; Renilla normaliser, rep 1 = 4868; activity call = inactive
robo3 [DRSC00374] — E2F firefly, rep 1 = 1.60e5; Renilla normaliser, rep 1 = 5627; activity call = inactive
robo3 [DRSC00375] — E2F firefly, rep 1 = 1.58e5; Renilla normaliser, rep 1 = 5255; activity call = inactive
robo3 [DRSC00684] — E2F firefly, rep 1 = 1.49e5; Renilla normaliser, rep 1 = 4945; activity call = inactive
gd [DRSC20336] — E2F firefly, rep 1 = 1.32e5; Renilla normaliser, rep 1 = 6345; activity call = inactive
CG14286 [DRSC14767] — E2F firefly, rep 1 = 1.38e5; Renilla normaliser, rep 1 = 7252; activity call = inactive
PGRP-SA [DRSC19420] — E2F firefly, rep 1 = 1.39e5; Renilla normaliser, rep 1 = 7069; activity call = inactive
CG34304 (retired record) [DRSC12810] — E2F firefly, rep 1 = 58768; Renilla normaliser, rep 1 = 4639; activity call = inactive
CG33061 [DRSC09938] — E2F firefly, rep 1 = 1.82e5; Renilla normaliser, rep 1 = 7481; activity call = inactive
Lsm12a [DRSC19702] — E2F firefly, rep 1 = 72065; Renilla normaliser, rep 1 = 3993; activity call = inactive
Rsph9 [DRSC01594] — E2F firefly, rep 1 = 1.31e5; Renilla normaliser, rep 1 = 5499; activity call = inactive
gudu [DRSC02820] — E2F firefly, rep 1 = 1.29e5; Renilla normaliser, rep 1 = 5179; activity call = inactive
Prp40 [DRSC00612] — E2F firefly, rep 1 = 65814; Renilla normaliser, rep 1 = 189; activity call = inactive
CG9926 [DRSC16582] — E2F firefly, rep 1 = 80647; Renilla normaliser, rep 1 = 3831; activity call = inactive
CG33017 [DRSC06573] — E2F firefly, rep 1 = 1.46e5; Renilla normaliser, rep 1 = 4919; activity call = inactive
CG33017 [DRSC06574] — E2F firefly, rep 1 = 1.47e5; Renilla normaliser, rep 1 = 5850; activity call = inactive
dy [DRSC20325] — E2F firefly, rep 1 = 81329; Renilla normaliser, rep 1 = 4590; activity call = inactive
Dus1 [DRSC00623] — E2F firefly, rep 1 = 1.57e5; Renilla normaliser, rep 1 = 4610; activity call = inactive
CG33268 [DRSC10143] — E2F firefly, rep 1 = 1.19e5; Renilla normaliser, rep 1 = 6757; activity call = inactive
puml [DRSC06793] — E2F firefly, rep 1 = 1.42e5; Renilla normaliser, rep 1 = 4628; activity call = inactive
CG10597 [DRSC19357] — E2F firefly, rep 1 = 2.36e5; Renilla normaliser, rep 1 = 6248; activity call = inactive
CG7248 [DRSC10788] — E2F firefly, rep 1 = 1.18e5; Renilla normaliser, rep 1 = 7246; activity call = inactive
CG14624 [DRSC18634] — E2F firefly, rep 1 = 50399; Renilla normaliser, rep 1 = 3215; activity call = inactive
CG5162 [DRSC19935] — E2F firefly, rep 1 = 1.49e5; Renilla normaliser, rep 1 = 5817; activity call = inactive
Srp68 [DRSC10475] — E2F firefly, rep 1 = 65080; Renilla normaliser, rep 1 = 3628; activity call = inactive
